Results deposited as PubChem BioAssay AID1053208 (Peter MacCallum Cancer Centre, 2014).
The whole screen tested about 17,000 reagents; this is a random part of them. 788 of them (4.7%) were called active. 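Calls rest on z-score classes alone; an extra cut-off of viability at most 70% of control was not applied to them.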 Reagents against one gene are numbered here. Some reagents were tested in more than one well and are listed for each.

- Aim: 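Synthetic lethal interactions between gene loss and doxorubicin in osteosarcoma cells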 (primary screen)
- Cell system: mouse osteosarcoma cells, early-passage culture from an engineered mouse model of fibroblastic bone tumour
- Knock-down reagent: siRNA pool against mouse genes, 40 nM
- Timing: about 120 h (48 h before drug, then 72 h with drug)
- Challenge: doxorubicin 100 nM for 72 h, roughly 30-40% inhibitory dose
- Measured: 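Luminescent ATP signal taken as viability with or without 100 nM doxorubicin for 72 h; mean of two wells set against non-targeting siRNA and turned into robust z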
- Scale: viability z-score with doxorubicin and doxorubicin viability vs non-targeting: higher = more viable cells under doxorubicin; viability z-score without drug: higher = more viable cells with knock-down alone; z-score of drug to no-drug ratio: higher = less drug sensitisation by knock-down
- Active means: 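Called active if knock-down leaves viability unchanged without drug (z within -2 to 2) but lowers it with doxorubicin (z at or under -2)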

gene	reagent	combined z-score class	viability z-score with doxorubicin	viability z-score without drug	z-score of drug to no-drug ratio	doxorubicin viability vs non-targeting	outcome
Slc25a44	1	no change with or without drug	0.67	0.84	0.22	1	inactive
Flrt2 (fibronectin leucine rich transmembrane protein 2)	1	no change with or without drug	0.11	1.52	-0.79	0.95	inactive
Fut2b (fucosyltransferase 2B)	1	no change with or without drug	-0.9	-0.84	-0.22	0.86	inactive
Capn10 (calpain 10)	1	no change with or without drug	0.22	0.17	0.22	0.96	inactive
Dnttip1 (deoxynucleotidyltransferase, terminal, interacting protein 1)	1	no change with or without drug	1.12	0.34	1.01	1.04	inactive
Fezf2 (Fez family zinc finger 2)	1	no change with or without drug	0	1.52	-0.9	0.94	inactive
Wfdc12 (WAP four-disulfide core domain 12)	1	low cell count without drug only	-1.91	-2.36	-0.34	0.77	inactive
Unc45a (unc-45 myosin chaperone A)	1	no change with or without drug	-0.22	-0.67	0.34	0.92	inactive
Tlr3 (toll-like receptor 3)	1	high without drug; low with doxorubicin	-2.25	2.02	-3.26	0.74	inactive
Fanci (Fanconi anemia, complementation group I)	1	no change with or without drug	-0.67	0.84	-1.12	0.88	inactive
Guca2a (guanylate cyclase activator 2a (guanylin))	1	no change with or without drug	0.34	0.17	0.34	0.97	inactive
Tardbp (TAR DNA binding protein)	1	no change with or without drug	-1.46	-1.52	-0.45	0.81	inactive
Keap1 (kelch-like ECH-associated protein 1)	1	no change with or without drug	-0.22	0.51	-0.45	0.92	inactive
Katnbl1 (katanin p80 subunit B like 1)	1	no change with or without drug	-1.91	-1.18	-1.12	0.77	inactive
Pigr (polymeric immunoglobulin receptor)	1	no change with or without drug	-0.34	-0.67	0.22	0.91	inactive
Pycard (PYD and CARD domain containing)	1	no change with or without drug	-0.67	-1.18	0.22	0.88	inactive
Fbxw5 (F-box and WD-40 domain protein 5)	1	no change with or without drug	-0.9	0.17	-0.9	0.86	inactive
Bloc1s6	1	no change with or without drug	1.35	0.34	1.24	1.06	inactive
Mpi (mannose phosphate isomerase)	1	no change with or without drug	-0.79	-0.17	-0.56	0.87	inactive
Myl12a (myosin, light chain 12A, regulatory, non-sarcomeric)	1	no change with or without drug	0.45	0	0.56	0.98	inactive
Apod (apolipoprotein D)	1	no change with or without drug	1.8	1.18	1.12	1.1	inactive
Or5g25 (olfactory receptor family 5 subfamily G member 25)	1	no change with or without drug	1.57	1.35	0.79	1.08	inactive

9 entries from above, showing only “combined z-score class”:
Fanci (Fanconi anemia, complementation group I): no change with or without drug
Guca2a (guanylate cyclase activator 2a (guanylin)): no change with or without drug
Tardbp (TAR DNA binding protein): no change with or without drug
Keap1 (kelch-like ECH-associated protein 1): no change with or without drug
Katnbl1 (katanin p80 subunit B like 1): no change with or without drug
Pigr (polymeric immunoglobulin receptor): no change with or without drug
Pycard (PYD and CARD domain containing): no change with or without drug
Fbxw5 (F-box and WD-40 domain protein 5): no change with or without drug
Bloc1s6: no change with or without drug

Further results follow:
gene	reagent	combined z-score class	viability z-score with doxorubicin	viability z-score without drug	z-score of drug to no-drug ratio	doxorubicin viability vs non-targeting	outcome
Usp3 (ubiquitin specific peptidase 3)	1	no change with or without drug	-0.34	-0.67	0.22	0.91	inactive
Hnf4g (hepatocyte nuclear factor 4, gamma)	1	no change with or without drug	-1.12	-0.51	-0.79	0.84	inactive
Bard1 (BRCA1 associated RING domain 1)	1	no change with or without drug	-0.34	-0.17	-0.11	0.91	inactive
Tmem43 (transmembrane protein 43)	1	no change with or without drug	1.69	1.85	0.56	1.09	inactive
Arpp21 (cyclic AMP-regulated phosphoprotein, 21)	1	no change with or without drug	-0.67	0.84	-1.12	0.88	inactive
Arpp21 (cyclic AMP-regulated phosphoprotein, 21)	2	no change with or without drug	1.57	1.18	0.9	1.08	inactive
Rnf4 (ring finger protein 4)	1	no change with or without drug	0.56	0.17	0.56	0.99	inactive
Hpn (hepsin)	1	no change with or without drug	-0.22	1.35	-1.01	0.92	inactive
Atmin (ATM interactor)	1	no change with or without drug	0.22	-0.17	0.45	0.96	inactive
Naip6 (NLR family, apoptosis inhibitory protein 6)	1	no change with or without drug	1.8	1.18	1.12	1.1	inactive
Fxn (frataxin)	1	no change with or without drug	-1.35	-0.51	-1.01	0.82	inactive
Rmnd5a (required for meiotic nuclear division 5 homolog A)	1	no change with or without drug	0.22	-0.34	0.56	0.96	inactive
Vtn (vitronectin)	1	no change with or without drug	0.22	1.01	-0.34	0.96	inactive
Cercam (cerebral endothelial cell adhesion molecule)	1	no change with or without drug	-0.11	-0.51	0.34	0.93	inactive
Gclm (glutamate-cysteine ligase, modifier subunit)	1	no change with or without drug	-0.67	-0.67	-0.11	0.88	inactive
Prp2 (proline rich protein 2)	1	no change with or without drug	-0.67	-0.67	-0.11	0.88	inactive
Nkx2-3 (NK2 homeobox 3)	1	no change with or without drug	0	-0.51	0.45	0.94	inactive
Anxa10 (annexin A10)	1	no change with or without drug	0.45	-0.17	0.67	0.98	inactive
Cxadr (coxsackie virus and adenovirus receptor)	1	no change with or without drug	1.12	0.51	0.9	1.04	inactive
Sidt2 (SID1 transmembrane family, member 2)	1	no change with or without drug	-0.56	0.51	-0.79	0.89	inactive
P2rx4 (purinergic receptor P2X, ligand-gated ion channel 4)	1	no change with or without drug	0.56	-0.84	1.35	0.99	inactive
Wdpcp (WD repeat containing planar cell polarity effector)	1	no change with or without drug	-1.01	-0.17	-0.9	0.85	inactive
Sucla2 (succinate-Coenzyme A ligase, ADP-forming, beta subunit)	1	no change with or without drug	0.22	-0.51	0.67	0.96	inactive
Men1 (multiple endocrine neoplasia 1)	1	no change with or without drug	-0.22	0.51	-0.45	0.92	inactive
Reck (reversion-inducing-cysteine-rich protein with kazal motifs)	1	no change with or without drug	-1.01	-1.52	0.11	0.85	inactive
Akt1 (Akt serine/threonine kinase 1)	1	no change with or without drug	-0.34	-0.51	0.11	0.91	inactive
Akt1 (Akt serine/threonine kinase 1)	1	no change with or without drug	-1.12	-1.18	-0.34	0.84	inactive
Ube2q2 (ubiquitin-conjugating enzyme E2Q family member 2)	1	no change with or without drug	-1.57	-0.51	-1.24	0.8	inactive
Or52ae7 (olfactory receptor family 52 subfamily AE member 7)	1	no change with or without drug	0	-1.18	1.01	0.94	inactive
Treh (trehalase (brush-border membrane glycoprotein))	1	no change with or without drug	-0.67	0.51	-0.9	0.88	inactive
Ckmt2 (creatine kinase, mitochondrial 2)	1	no change with or without drug	0.22	-0.84	1.01	0.96	inactive
Actl6a (actin-like 6A)	1	no change with or without drug	0.79	0.17	0.79	1.01	inactive
Actl6a (actin-like 6A)	1	no change with or without drug	1.01	0.51	0.79	1.03	inactive
Sh3kbp1 (SH3-domain kinase binding protein 1)	1	no change with or without drug	0.22	-0.51	0.67	0.96	inactive
Or8j3c (olfactory receptor family 8 subfamily J member 3C)	1	no change with or without drug	1.35	1.18	0.67	1.06	inactive
Fem1al (fem-1 homolog A like)	1	no change with or without drug	0.67	1.52	-0.22	1	inactive
H2ac8 (H2A clustered histone 8)	1	no change with or without drug	0.9	0.84	0.45	1.02	inactive
Marveld2 (MARVEL (membrane-associating) domain containing 2)	1	low cell count without drug only	-1.46	-2.53	0.34	0.81	inactive
Hoxa11 (homeobox A11)	1	no change with or without drug	0	-0.84	0.67	0.94	inactive
Slc6a8	1	no change with or without drug	1.46	0	1.69	1.07	inactive
Bok (BCL2-related ovarian killer)	1	no change with or without drug	1.12	-0.67	1.8	1.04	inactive
